Source: the supplement of paper PMC11006884
The entries are a selection whose mix differs from that of the whole data set. This is a noisy data set.

Protein sequences, listed by entry. Tags and fused reporters are not part of them. Lines headed by an entry give the natural chain unless they say otherwise; changes in a name come on top.
UniProt Q49AR2: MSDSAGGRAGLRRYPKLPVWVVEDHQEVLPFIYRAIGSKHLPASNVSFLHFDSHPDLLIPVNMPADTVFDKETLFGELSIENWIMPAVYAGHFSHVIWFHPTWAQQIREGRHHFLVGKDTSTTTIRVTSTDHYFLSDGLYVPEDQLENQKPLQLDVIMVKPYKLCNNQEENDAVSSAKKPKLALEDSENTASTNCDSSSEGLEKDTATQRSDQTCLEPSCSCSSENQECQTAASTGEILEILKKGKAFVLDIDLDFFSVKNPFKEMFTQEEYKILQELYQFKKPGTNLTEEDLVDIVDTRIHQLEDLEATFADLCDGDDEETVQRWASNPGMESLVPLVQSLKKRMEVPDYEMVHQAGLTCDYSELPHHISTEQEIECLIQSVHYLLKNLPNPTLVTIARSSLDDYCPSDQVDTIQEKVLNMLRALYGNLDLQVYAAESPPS
UniProt Q15126: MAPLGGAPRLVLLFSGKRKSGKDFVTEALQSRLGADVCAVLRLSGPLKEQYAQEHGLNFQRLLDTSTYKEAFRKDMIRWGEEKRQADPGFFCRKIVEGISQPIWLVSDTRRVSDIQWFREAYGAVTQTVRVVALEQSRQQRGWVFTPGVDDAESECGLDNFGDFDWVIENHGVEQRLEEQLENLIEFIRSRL
UniProt Q15102: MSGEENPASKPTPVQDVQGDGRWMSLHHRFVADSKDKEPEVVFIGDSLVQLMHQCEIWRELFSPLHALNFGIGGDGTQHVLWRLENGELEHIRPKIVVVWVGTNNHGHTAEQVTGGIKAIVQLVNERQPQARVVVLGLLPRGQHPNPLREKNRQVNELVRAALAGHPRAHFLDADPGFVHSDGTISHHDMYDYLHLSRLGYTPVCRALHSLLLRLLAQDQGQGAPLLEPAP
UniProt Q15084: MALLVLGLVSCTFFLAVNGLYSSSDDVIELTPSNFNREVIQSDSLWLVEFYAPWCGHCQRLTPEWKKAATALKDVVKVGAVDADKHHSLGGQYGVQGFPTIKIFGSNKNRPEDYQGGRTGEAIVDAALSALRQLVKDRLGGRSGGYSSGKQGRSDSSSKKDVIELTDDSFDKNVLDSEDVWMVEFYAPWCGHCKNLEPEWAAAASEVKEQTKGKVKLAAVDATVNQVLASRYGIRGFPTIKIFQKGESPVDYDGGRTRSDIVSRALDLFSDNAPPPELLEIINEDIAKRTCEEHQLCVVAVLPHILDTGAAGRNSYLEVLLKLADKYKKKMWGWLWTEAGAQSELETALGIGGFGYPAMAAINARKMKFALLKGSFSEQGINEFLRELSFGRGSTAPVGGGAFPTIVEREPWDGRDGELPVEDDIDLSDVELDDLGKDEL
UniProt Q16342: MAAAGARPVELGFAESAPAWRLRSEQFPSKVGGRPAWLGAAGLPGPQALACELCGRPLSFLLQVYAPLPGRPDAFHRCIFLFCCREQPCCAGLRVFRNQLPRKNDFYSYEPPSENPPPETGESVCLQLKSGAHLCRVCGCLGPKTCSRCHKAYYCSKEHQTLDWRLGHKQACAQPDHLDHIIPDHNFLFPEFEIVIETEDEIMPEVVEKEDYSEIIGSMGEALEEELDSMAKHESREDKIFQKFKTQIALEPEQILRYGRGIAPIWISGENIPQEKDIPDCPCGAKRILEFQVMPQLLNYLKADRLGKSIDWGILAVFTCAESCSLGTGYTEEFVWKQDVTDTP
UniProt Q15366, whole entry, looked up: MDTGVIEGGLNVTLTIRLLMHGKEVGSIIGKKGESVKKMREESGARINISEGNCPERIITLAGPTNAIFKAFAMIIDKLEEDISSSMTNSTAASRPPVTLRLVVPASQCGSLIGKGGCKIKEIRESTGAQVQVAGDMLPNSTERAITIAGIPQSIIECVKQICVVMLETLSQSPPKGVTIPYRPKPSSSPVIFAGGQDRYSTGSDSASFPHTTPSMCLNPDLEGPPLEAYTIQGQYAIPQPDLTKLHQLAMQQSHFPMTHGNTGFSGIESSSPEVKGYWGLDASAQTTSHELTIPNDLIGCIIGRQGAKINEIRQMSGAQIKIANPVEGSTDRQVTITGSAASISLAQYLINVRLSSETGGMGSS
UniProt Q32MZ4: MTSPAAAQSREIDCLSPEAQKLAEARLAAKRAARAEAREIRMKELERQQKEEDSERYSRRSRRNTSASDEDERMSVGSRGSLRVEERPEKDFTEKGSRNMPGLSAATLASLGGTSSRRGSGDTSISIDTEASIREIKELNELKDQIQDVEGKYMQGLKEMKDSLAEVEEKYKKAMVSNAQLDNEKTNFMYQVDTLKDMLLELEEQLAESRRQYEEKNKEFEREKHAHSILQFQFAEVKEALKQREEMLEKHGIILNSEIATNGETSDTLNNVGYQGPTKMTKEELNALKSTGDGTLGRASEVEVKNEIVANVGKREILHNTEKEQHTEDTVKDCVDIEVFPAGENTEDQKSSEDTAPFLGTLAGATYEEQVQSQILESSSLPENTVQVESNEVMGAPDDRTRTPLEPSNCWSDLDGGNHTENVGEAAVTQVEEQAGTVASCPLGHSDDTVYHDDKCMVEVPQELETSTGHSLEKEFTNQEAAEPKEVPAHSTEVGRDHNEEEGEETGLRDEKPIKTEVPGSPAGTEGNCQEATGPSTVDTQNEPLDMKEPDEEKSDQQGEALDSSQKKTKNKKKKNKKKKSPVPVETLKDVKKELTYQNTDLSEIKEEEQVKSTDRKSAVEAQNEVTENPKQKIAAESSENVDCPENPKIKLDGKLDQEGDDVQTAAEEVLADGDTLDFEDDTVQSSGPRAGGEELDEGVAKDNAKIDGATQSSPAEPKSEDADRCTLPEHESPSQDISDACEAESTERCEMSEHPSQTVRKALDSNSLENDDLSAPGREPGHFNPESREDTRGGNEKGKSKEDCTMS
UniProt Q15654: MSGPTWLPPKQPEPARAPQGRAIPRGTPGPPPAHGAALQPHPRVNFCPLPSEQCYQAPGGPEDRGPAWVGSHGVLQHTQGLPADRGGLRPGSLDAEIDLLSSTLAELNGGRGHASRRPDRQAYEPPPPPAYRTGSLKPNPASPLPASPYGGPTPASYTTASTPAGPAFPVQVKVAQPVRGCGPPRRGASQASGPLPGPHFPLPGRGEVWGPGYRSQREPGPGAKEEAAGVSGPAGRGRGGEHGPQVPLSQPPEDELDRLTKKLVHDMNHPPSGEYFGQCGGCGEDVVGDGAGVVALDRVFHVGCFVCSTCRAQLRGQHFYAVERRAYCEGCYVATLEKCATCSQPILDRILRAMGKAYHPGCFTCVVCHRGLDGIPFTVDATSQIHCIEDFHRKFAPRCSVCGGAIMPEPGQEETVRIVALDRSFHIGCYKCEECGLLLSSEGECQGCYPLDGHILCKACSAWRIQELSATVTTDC
UniProt Q15397: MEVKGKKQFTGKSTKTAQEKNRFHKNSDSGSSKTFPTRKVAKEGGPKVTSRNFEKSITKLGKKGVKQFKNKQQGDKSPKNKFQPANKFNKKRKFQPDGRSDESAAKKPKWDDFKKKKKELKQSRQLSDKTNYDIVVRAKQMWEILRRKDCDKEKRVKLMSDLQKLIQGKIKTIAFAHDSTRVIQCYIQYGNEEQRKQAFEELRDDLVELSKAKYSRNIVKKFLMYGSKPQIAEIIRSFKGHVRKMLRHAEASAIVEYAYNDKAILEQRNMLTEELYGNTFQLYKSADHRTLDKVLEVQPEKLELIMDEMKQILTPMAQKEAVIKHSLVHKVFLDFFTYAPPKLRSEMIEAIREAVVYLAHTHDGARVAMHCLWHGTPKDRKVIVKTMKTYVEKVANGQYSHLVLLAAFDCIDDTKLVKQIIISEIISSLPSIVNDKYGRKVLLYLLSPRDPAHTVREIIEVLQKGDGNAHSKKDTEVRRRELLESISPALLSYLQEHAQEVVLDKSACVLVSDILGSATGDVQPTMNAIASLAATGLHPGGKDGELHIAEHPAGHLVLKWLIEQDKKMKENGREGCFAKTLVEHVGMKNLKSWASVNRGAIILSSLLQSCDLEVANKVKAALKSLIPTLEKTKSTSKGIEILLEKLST
UniProt Q16643: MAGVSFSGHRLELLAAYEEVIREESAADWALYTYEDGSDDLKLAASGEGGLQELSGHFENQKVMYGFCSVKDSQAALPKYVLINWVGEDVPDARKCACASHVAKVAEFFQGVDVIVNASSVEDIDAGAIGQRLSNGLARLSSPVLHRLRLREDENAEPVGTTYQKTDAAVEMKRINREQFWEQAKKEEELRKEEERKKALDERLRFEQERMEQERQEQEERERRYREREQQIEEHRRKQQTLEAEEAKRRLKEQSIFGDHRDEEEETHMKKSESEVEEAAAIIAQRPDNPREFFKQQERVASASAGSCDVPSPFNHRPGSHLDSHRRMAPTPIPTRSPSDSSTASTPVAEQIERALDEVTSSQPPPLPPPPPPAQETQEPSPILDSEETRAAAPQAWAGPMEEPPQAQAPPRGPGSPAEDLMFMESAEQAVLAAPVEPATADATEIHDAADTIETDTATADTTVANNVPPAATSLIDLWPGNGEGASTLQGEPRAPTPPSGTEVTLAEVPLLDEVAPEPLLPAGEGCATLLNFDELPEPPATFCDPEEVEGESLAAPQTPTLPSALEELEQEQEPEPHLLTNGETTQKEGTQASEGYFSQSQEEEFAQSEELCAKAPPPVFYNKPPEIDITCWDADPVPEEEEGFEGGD
UniProt Q15437: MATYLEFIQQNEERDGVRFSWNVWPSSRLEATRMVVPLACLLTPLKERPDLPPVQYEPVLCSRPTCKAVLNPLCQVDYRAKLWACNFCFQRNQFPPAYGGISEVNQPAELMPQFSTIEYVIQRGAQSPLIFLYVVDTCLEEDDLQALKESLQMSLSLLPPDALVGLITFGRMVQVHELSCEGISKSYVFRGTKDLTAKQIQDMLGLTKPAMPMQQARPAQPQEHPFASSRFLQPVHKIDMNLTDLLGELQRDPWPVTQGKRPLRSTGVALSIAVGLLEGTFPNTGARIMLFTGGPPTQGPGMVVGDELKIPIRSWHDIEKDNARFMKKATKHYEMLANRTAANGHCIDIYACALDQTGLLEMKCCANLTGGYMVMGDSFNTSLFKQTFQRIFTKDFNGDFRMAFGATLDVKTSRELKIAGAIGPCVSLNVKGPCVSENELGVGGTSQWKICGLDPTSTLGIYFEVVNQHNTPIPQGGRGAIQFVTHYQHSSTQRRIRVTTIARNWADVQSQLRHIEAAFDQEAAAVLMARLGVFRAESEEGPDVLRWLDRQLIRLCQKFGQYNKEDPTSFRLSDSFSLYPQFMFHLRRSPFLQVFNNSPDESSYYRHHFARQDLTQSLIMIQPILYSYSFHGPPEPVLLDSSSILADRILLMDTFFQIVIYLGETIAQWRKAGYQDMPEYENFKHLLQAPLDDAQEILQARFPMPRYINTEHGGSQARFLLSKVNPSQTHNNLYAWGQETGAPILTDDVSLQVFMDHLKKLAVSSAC
UniProt Q16134: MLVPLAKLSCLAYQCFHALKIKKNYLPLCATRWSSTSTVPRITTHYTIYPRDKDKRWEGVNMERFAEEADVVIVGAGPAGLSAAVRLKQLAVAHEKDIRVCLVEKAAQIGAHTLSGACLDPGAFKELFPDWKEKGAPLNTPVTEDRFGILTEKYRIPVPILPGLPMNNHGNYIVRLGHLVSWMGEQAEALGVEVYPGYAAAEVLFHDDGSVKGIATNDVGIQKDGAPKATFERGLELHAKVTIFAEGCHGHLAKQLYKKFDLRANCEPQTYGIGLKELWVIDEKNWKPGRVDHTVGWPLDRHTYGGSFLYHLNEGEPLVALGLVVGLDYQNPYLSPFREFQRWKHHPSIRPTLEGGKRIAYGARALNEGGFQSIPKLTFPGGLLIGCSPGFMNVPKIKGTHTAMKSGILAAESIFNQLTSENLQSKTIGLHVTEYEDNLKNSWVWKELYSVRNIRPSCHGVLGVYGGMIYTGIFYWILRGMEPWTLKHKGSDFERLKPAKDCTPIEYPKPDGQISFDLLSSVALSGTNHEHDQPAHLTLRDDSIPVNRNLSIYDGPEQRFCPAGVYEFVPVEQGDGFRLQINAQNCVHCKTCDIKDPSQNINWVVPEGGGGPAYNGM
UniProt Q15050: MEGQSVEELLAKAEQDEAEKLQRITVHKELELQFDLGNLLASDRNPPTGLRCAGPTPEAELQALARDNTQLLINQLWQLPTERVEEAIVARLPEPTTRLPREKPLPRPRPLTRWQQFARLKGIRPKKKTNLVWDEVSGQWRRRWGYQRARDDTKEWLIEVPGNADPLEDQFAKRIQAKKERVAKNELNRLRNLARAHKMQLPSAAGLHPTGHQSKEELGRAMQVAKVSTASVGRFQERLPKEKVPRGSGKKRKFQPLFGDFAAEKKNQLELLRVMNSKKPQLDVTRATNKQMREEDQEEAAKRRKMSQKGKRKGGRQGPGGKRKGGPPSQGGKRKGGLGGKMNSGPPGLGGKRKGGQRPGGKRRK
UniProt Q16763: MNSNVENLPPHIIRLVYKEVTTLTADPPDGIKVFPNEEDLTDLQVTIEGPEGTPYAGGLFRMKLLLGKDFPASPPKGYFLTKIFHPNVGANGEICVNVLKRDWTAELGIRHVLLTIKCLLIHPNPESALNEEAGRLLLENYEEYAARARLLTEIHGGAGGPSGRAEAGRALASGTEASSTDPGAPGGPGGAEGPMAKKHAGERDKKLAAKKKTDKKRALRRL

Compound: COC(=O)/C=C/c1ccccc1 [methyl cinnamate]
Assay: log2 ratio of iodoacetamide-alkyne labeling of the cysteine site, DMSO over compound (competition); higher = stronger covalent engagement of the cysteine by the compound, active = 1 or more
Conditions: 500 µM; treatment time 1 h; system: HEK293T cell lysate
Procedure, shortened: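 HEK293T lysate (2 mg/mL) was treated with DMSO or electrophile (500 µM, 1 h, ambient temperature), then iodoacetamide alkyne (1 h), clicked to sCIP-TMT reagents, pooled, trypsin-digested overnight at 37 °C, streptavidin-enriched and acid-eluted. Peptides were run on Orbitrap Eclipse LC-MS/MS with FAIMS and quantified in FragPipe. The log2 competition ratio per cysteine is mean control-channel over mean compound-channel reporter intensity. Duplicate channels and three replicates were used, and cysteines quantified in only one replicate were excluded.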

log2 ratio of iodoacetamide-alkyne labeling, inactive:
C5orf22 C195 (UniProt Q49AR2) 0.357
PDS5A C242 (UniProt Q29RF7) -0.164
PMVK C38 (UniProt Q15126) 0.132
RASA2 C314 (UniProt Q15283) 0.211
PAFAH1B3 C205 (UniProt Q15102) 0.28
UniProt Q16512_C602 -0.24
SLC1A5 C363 (UniProt Q15758) 0.422
PDIA6 C193 (UniProt Q15084) -0.0138
KIF14 C47 (UniProt Q15058) 0.321
PDK3 C41 (UniProt Q15120) 0.377
PDCD2 C125 (UniProt Q16342) -0.017
PDS5A C1116 (UniProt Q29RF7) 0.18
PCBP2 C158 (UniProt Q15366) 0.182
LRRFIP1 C805 (UniProt Q32MZ4) 0.427
TRIP6 C387 (UniProt Q15654) -0.0561
CCDC6 C27 (UniProt Q16204) 0.366
PDCD4 C150 (UniProt Q53EL6) 0.537
UniProt Q15397_C185 0.0749
HNRNPUL2 C408 (UniProt Q1KMD3) -0.11
PDIA6 C190 (UniProt Q15084) -0.00875
DBN1 C613 (UniProt Q16643) -0.156
CDK10 C8 (UniProt Q15131) 0.232
SEC23B C767 (UniProt Q15437) 0.187
VPS26B C334 (UniProt Q4G0F5) 0.648
SEC23A C180 (UniProt Q15436) 0.0171
LACTB2 C100 (UniProt Q53H82) 0.153
ETFDH C592 (UniProt Q16134) 0.0771
CSRP2 C122 (UniProt Q16527) -0.045
DBN1 C96 (UniProt Q16643) 0.218
EFTUD2 C663 (UniProt Q15029) -0.346
UniProt Q15631_C225 0.276
RRS1 C52 (UniProt Q15050) 0.0753
UBE2S C118 (UniProt Q16763) -0.0948
UBE3C C252 (UniProt Q15386) -0.0482
LRRFIP1 C644 (UniProt Q32MZ4) 0.203
ETFDH C118 (UniProt Q16134) 0.437
SF3B3 C1054 (UniProt Q15393) 0.606
PPA1 C270 (UniProt Q15181) 0.157

2 records picked at random from the list so far:
log2 ratio of iodoacetamide-alkyne labeling, inactive:
PCBP2 C158 (UniProt Q15366) 0.182
PDCD4 C150 (UniProt Q53EL6) 0.537
